In PubChem BioAssay AID504834 (National Center for Advancing Translational Sciences (NCATS), 2011):
The campaign covered roughly 320,000 compounds. About 22,000 (6.9%) were called active. Inconclusive results, whose numbers are uncertain, are shown with a selection of clear calls. Calls come from the whole dose curve; as a rule, active = well fitted inhibition curve with a large enough effect; inconclusive = small, poorly fitted or top-dose-only effect, or another doubt; inactive = no such curve, though single readings can be large or run the other way. Potencies of inconclusive entries are doubtful fits and often do not repeat.
% is set by controls: 0 for no effect and ±100 for the full control effect; potency is the fitted concentration of half-maximal effect.

Test: Primary qHTS for delayed death inhibitors of the malarial parasite plastid, 96 hour incubation
Conditions: P. falciparum luciferase reporter growth; series mostly up to 28.7 µM; activity change, negative = inhibition: at the top concentration
Outline: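 Delayed-death screen, second-generation endpoint: infected erythrocytes, 2% hematocrit, 0.05% parasitemia final; 96 hours at 37 C, 5% CO2; luciferase detection reagent; luminescence decrease equals reduced growth.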
In the case of `Cc1ccc(C)c(NC(=O)c2cc(-c3ccccc3)nn2-c2ccccc2)c1`, the Potency was inconclusive: 14.7 µM [inhibitor, single point]. For `O=C(Cc1ccccc1)NCC(=O)N1CCN(c2ccccc2)CC1`, the “activity change, negative = inhibition” value was inactive: -15.3%. In the case of `CCN1CCN(CCCNC(=O)CCC(=O)N2CCOc3ccc(Cl)cc32)CC1`, the Potency was inconclusive: 0.0147 µM [inhibitor, full curve, poor fit]. With `COc1ccc(CCNC(=S)Nc2ccc(S(=O)(=O)Nc3ncccn3)cc2)cc1OC` the “activity change, negative = inhibition” value was inactive: -14.1%. With `COc1cc(C(=O)NC(=S)Nc2ccc(Cc3ccncc3)cc2)cc(OC)c1OC` the “activity change, negative = inhibition” value was inactive: 40.3%. With `Cc1ccc(C)n1-c1ccc(C(=O)Nc2ccccc2)cc1` the Potency was inconclusive: 11.7 µM [inhibitor, single point]. For `CCOC(=O)c1sc2ncnc(N3CCN(c4ccc(OC)cc4)CC3)c2c1C`, the Potency was inconclusive: 18.5 µM [inhibitor, single point]. With `CCOc1ccc(C2/C(=C(\O)c3ccc4c(c3)OCCO4)C(=O)C(=O)N2Cc2cccnc2)cc1OCC` (stereo not drawn) the Potency was inconclusive: 18.5 µM [inhibitor, single point]. For `COC(=O)c1cc(NS(=O)(=O)c2ccc(N3CCOCC3)c(NC(C)=O)c2)cc(C(=O)OC)c1`, the Potency was inconclusive: 18.5 µM [inhibitor, single point]. For `O=C(Cc1ccccc1F)Nc1cc(S(=O)(=O)N2CCOCC2)ccc1N1CCOCC1`, the Potency was inconclusive: 11.7 µM [inhibitor, single point]. With `O=C(NCCc1ccccn1)c1cncc(Br)c1` the “activity change, negative = inhibition” value was inactive: 70.3%. For `Cn1c(SCC(=O)Nc2ccccc2F)nnc1-c1ccc(S(=O)(=O)N2CCOCC2)cc1`, the Potency was inconclusive: 11.7 µM [inhibitor, single point]. With `COC(=O)c1cc(S(=O)(=O)N2CCN(c3ccccc3)CC2)c[nH]1` the Potency was inconclusive: 11.7 µM [inhibitor, single point]. With `O=C(CCc1ccccc1)NC(=S)Nc1cc(C(F)(F)F)ccc1N1CCOCC1` the Potency was active: 8.28 µM. With `CC(Nc1nc2ncn(Cc3ccccc3)c2c(=O)[nH]1)C(=O)O` (stereo not drawn) the Potency was inconclusive: 2.33 µM [inhibitor, partial curve, poor fit]. In the case of `COc1cc(-c2nc3oc4ccccc4c(=O)c3c(=O)n2Cc2ccco2)cc(OC)c1OC`, the Potency was inconclusive: 4.65 µM [inhibitor, partial curve, poor fit]. With `CN(CCOc1ccc(Cl)c(Cl)c1)Cc1ccccc1` the Potency was inconclusive: 18.5 µM [inhibitor, single point]. With `CCc1ccc(NC(=O)NCC2CCN(c3ccc(OC)cc3)C2)cc1` (stereo not drawn) the Potency was inconclusive: 13.1 µM [inhibitor, partial curve, poor fit]. In the case of `CCOc1cc2[nH]c(=S)n(C(C)C)c(=O)c2cc1OCC`, the Potency was active: 8.28 µM. With `Cc1ccc(C)c(S(=O)(=O)N2CCN(C(=O)C3CCN(c4ncnc5sc(C)c(C)c45)CC3)CC2)c1` the Potency was inconclusive: 8.28 µM [inhibitor, partial curve, poor fit]. With `CC1(C)CN(c2ccccc2)N(C(=O)c2ccc(C#N)cc2)C1=O` the Potency was inconclusive: 3.7 µM [inhibitor, partial curve, poor fit]. For `CCC(=O)Nc1ccc(C(=O)Nc2ccc3c(c2)OCO3)cc1`, the Potency was inconclusive: 16.5 µM [inhibitor, single point]. With `COc1ccc(N2C(=O)CC(N(Cc3ccco3)C(=O)CCC(=O)O)C2=O)cc1` (stereo not drawn) the “activity change, negative = inhibition” value was inactive: -29%. In the case of `COc1ccc(-c2nc3ccccc3c(=O)n2CCc2ccc(O)cc2)cc1`, the Potency was inconclusive: 18.5 µM [inhibitor, single point]. With `Cc1ccc(NC(=O)CSc2ccc3nnc(-c4cccnc4)n3n2)cc1` the “activity change, negative = inhibition” value was inactive: 32.7%. In the case of `CCC(Oc1ccc2c(c1)C(=O)CC(C)(C)O2)C(=O)NCCN1CCCCCC1` (stereo not drawn), the Potency was inconclusive: 3.7 µM [inhibitor, full curve]. With `CC(NC(=O)c1ccccc1)c1ccc(F)cc1` (stereo not drawn) the “activity change, negative = inhibition” value was inactive: -7.78%. With `CCOc1cccc(C(=O)N/N=C/c2coc3ccccc3c2=O)c1` the Potency was inconclusive: 11.7 µM [inhibitor, single point]. With `CCCCN(Cc1cc2cc(OC)ccc2[nH]c1=O)C(=O)c1ccco1` the Potency was inconclusive: 10.4 µM [inhibitor, single point]. For `CS(=O)(=O)c1ccccc1-c1nnc(NC(=O)Cc2ccccc2)o1`, the Potency was inconclusive: 13.1 µM [inhibitor, single point]. For `COc1ccccc1C(=O)NC(=S)Nc1ccccc1N1CCCC1`, the Potency was active: 3.7 µM. In the case of `CN(CC(=O)Nc1ccc(N2CCOCC2)cc1)CC(=O)Nc1ccccc1C#N`, the “activity change, negative = inhibition” value was inactive: 0%. With `Cc1ccc(C(=O)NNS(=O)(=O)c2ccc(F)cc2)cc1` the “activity change, negative = inhibition” value was inactive: 4.77%. With `O=C(c1ccc(Cl)c(S(=O)(=O)N2CCOCC2)c1)N1CCCCC1` the Potency was inconclusive: 18.5 µM [inhibitor, single point]. For `CC(C)(C)S(=O)(=O)c1cnc(-c2ccc(Cl)cc2)nc1N`, the “activity change, negative = inhibition” value was inactive: 0%. In the case of `O=C(NCc1cccs1)C1CCN(c2ccc(S(=O)(=O)N3CCOCC3)cc2Cl)CC1`, the Potency was inconclusive: 10.4 µM [inhibitor, single point]. For `Cc1ccc(N2CC(C(=O)OCC(=O)c3ccc[nH]3)CC2=O)cc1` (stereo not drawn), the “activity change, negative = inhibition” value was inactive: 20.2%. With `O=C(/C=C/c1cccc([N+](=O)[O-])c1)Nc1ccccn1` the Potency was inconclusive: 18.5 µM [inhibitor, single point]. For `CCN(CC)S(=O)(=O)c1ccc(N2CCOCC2)c(NC(=O)Cc2ccc(Cl)cc2)c1`, the Potency was active: 11.7 µM. For `O=C(CCN1C(=O)c2cccc([N+](=O)[O-])c2C1=O)Nc1nccs1`, the “activity change, negative = inhibition” value was inactive: 110%. For `COc1ccccc1/C=C/C(=O)OCC(=O)N1CCN(S(=O)(=O)c2ccc(C)cc2C)CC1`, the “activity change, negative = inhibition” value was inactive: -31.4%. In the case of `CC(C)CC(COCc1ccc(Cl)cc1)N1CCN(C(=O)c2cccc(C(F)(F)F)c2)CCC1=O` (stereo not drawn), the Potency was inconclusive: 11.7 µM [inhibitor, single point]. With `O=C1NC(=O)N(CCc2ccc(F)cc2)C(=O)/C1=C\C=C\c1ccccc1` the Potency was inconclusive: 11.7 µM [inhibitor, single point]. For `O=C(N/N=C\c1c(F)c(F)c(F)c(F)c1F)c1ccc(-c2ccccc2)cc1`, the Potency was inconclusive: 11.7 µM [inhibitor, single point]. With `COc1cc2c(cc1OC)CN(C(=O)C1(c3ccccc3)CC1)CC2` the Potency was inconclusive: 13.1 µM [inhibitor, partial curve]. With `Cc1ccc(-n2nc(C)c3c(C)c(CCC(=O)Nc4ccc(CN5CCCC5)cc4)c(C)nc32)cc1` the Potency was inconclusive: 1.65 µM [inhibitor, full curve, poor fit]. With `CN(C(=O)c1ccc(Br)o1)C1CCCCC1` the Potency was inconclusive: 9.28 µM [inhibitor, single point]. In the case of `CC(NS(=O)(=O)c1ccccc1)C1COc2ccccc2O1` (stereo not drawn), the “activity change, negative = inhibition” value was inactive: 53.5%. In the case of `C/C(=C\c1ccc(Cl)cc1)C(=O)c1c(C)cc(C)[nH]c1=O`, the Potency was inconclusive: 9.28 µM [inhibitor, single point]. In the case of `Cc1ccc2nc(SCC(=O)c3ccc4c(c3)NC(=O)CO4)[nH]c2c1`, the Potency was inconclusive: 18.5 µM [inhibitor, single point]. With `Cc1cccc(NC(=O)CCc2c(C)nn(-c3ccc(N4CCOCC4)nn3)c2C)c1` the Potency was inconclusive: 0.294 µM [inhibitor, full curve, poor fit]. With `COCc1ccc(CN2CCCC(CO)(Cc3ccccc3C)C2)o1` (stereo not drawn) the Potency was inconclusive: 18.5 µM [inhibitor, single point]. In the case of `CCOc1ccc(Br)cc1S(=O)(=O)Nc1ccc(C(=O)Nc2ccc(C)cc2)cc1`, the Potency was inconclusive: 18.5 µM [inhibitor, single point]. In the case of `CSc1sc(C)cc1C1C(C#N)=C(N)N(c2cccnc2)C2=C1C(=O)CC(C)(C)C2` (stereo not drawn), the “activity change, negative = inhibition” value was inactive: 17.6%. In the case of `CC(C)(C)NC(=O)CSc1nc(O)cc(=O)[nH]1`, the Potency was inconclusive: 18.5 µM [inhibitor, single point]. For `O=C1N=c2ccc(Br)cc2=C1c1sc(=O)[nH]c1O`, the Potency was inconclusive: 18.5 µM [inhibitor, single point]. With `COc1cc(C=C(C(C)=O)C(C)=O)ccc1O` the Potency was inconclusive: 18.5 µM [inhibitor, single point]. With `CCOCCCNC(=O)C1(O)c2cc(Br)ccc2NC(=O)N1c1ccc(CC)cc1` (stereo not drawn) the Potency was inconclusive: 18.5 µM [inhibitor, single point]. With `O=C(NCc1ccccc1)C1=C[C@@H](c2ccc(Br)cc2)C[C@@H](OCc2ccc(CO)cc2)O1` the “activity change, negative = inhibition” value was inactive: -13.6%. With `Cn1cc(CN2CCCC(CO)(Cc3cccc(Cl)c3)C2)cn1` (stereo not drawn) the “activity change, negative = inhibition” value was inactive: -4.44%. In the case of `O=C(O)c1ccc(-c2ccc(/C=C3\NC(=O)N(Cc4ccc(Cl)cc4)C3=O)o2)cc1`, the Potency was inconclusive: 8.28 µM [inhibitor, partial curve, poor fit]. With `O=C(c1cccs1)N1CCC(c2ccccc2)C1` (stereo not drawn) the “activity change, negative = inhibition” value was inactive: 4.32%. For `N#CCc1nc2n(n1)Cc1ccccc1-2`, the Potency was inconclusive: 1.85 µM [inhibitor, full curve, poor fit]. With `C[C@H](NC(=O)c1nc[nH]c1C(=O)NCCCCCNC(=O)OC(C)(C)C)C(=O)OCc1ccccc1` the “activity change, negative = inhibition” value was inactive: 0%. In the case of `O=c1[nH]c(C2C3CC4CC(C3)CC2C4)nc2ccccc12` (stereo not drawn), the Potency was inconclusive: 14.7 µM [inhibitor, single point]. With `CC(C)(C)c1ccc(C(=O)NCCC(=O)NCc2cccs2)cc1` the Potency was inconclusive: 0.294 µM [inhibitor, full curve, poor fit]. In the case of `O=C(c1cccc(S(=O)(=O)N2CCN(c3ccccc3)CC2)c1)N1CCN(c2ccccc2O)CC1`, the Potency was inconclusive: 11.7 µM [inhibitor, partial curve]. With `CC(/C=C/c1ccccc1)=N\NC(=O)c1ccncc1` the “activity change, negative = inhibition” value was inactive: 8.79%.
